Measured values published in PMC4997581.
Results are given in words; binding and its absence hold for the method and conditions named. In cells and extracts the contact can be indirect.

Chains of the proteins cited; added tags and fusions are not shown.
UniProt P16788: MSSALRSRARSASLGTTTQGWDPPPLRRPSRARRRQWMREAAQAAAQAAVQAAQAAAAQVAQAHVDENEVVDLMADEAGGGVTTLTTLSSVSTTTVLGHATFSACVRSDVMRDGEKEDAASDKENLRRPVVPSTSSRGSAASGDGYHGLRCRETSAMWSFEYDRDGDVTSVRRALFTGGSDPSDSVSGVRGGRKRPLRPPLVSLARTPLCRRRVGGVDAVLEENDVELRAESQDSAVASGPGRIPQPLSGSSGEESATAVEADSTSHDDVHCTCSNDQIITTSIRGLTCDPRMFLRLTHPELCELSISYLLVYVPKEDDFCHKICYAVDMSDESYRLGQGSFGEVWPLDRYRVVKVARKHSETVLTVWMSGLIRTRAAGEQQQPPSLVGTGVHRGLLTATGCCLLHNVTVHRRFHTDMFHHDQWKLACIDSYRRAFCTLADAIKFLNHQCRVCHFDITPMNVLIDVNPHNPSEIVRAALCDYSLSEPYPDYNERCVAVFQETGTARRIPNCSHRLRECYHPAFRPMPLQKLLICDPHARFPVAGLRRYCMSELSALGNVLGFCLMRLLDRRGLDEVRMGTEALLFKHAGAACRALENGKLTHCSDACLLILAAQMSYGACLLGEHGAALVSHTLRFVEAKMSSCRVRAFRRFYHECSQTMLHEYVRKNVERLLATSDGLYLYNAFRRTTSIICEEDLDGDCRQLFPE
UniProt P14635: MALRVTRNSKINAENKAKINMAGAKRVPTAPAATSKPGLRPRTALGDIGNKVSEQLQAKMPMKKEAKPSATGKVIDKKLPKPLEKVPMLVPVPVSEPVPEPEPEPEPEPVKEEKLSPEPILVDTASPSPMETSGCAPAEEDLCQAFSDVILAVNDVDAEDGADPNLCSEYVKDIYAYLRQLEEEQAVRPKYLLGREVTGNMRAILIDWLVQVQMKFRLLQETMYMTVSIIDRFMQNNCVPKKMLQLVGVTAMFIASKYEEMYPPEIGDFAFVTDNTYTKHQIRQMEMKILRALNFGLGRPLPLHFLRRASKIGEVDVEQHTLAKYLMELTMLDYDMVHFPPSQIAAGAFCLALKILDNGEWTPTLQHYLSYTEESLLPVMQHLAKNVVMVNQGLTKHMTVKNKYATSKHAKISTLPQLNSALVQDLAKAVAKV

Target: HCMV protein kinase pUL97, Flag-tagged (pUL97-Flag) (human cytomegalovirus) (UniProt P16788)
Experiment: co-IP

**Q.** With Cyclin B1 (from UniProt P14635 1-433) as the substance, how does the binding read?
**A.** Its binding is “no binding (condition: 500 mM NaCl in the IP buffer)”.
